The supplement of paper PMC8166895
Counter-ions that a name gives are not always drawn. The list shows a part of the results. Most entries show no effect beyond the scatter of the controls.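 A single-replicate pilot screen of approved drugs and clinical or known-target compounds measured melting temperature via differential scanning fluorimetry. Top stabilizing hits raised the melting point by 2 °C or more; negative shifts indicate destabilization.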

What follows are compounds tested on SARS-CoV-2 main protease (Mpro, nsp5) (assay: thermal shift ΔTm of Mpro relative to plate average Tm; higher = stronger thermal stabilization of Mpro (binding)). Settings: 10 µM; protein concentration 1 µM.

Row | SMILES | thermal shift ΔTm of Mpro
1 | COc1cc(NC(=O)c2ccccn2)ccc1Cl | 0.085 °C
2 | CCN(CC)C(=O)C1(c2ccccc2)CC1CN (stereo unspecified) [Milnacipran HCl] | 0.047 °C
3 | Cc1cc(C(C)(C)C)cc(C)c1CC1=NCCN1 [Xylometazoline HCl] | 0.189 °C
4 | COC(=O)[C@H](CC(C)C)NC(=O)c1ccc(NC[C@@H](N)CS)cc1-c1cccc2ccccc12 | 0.223 °C
5 | COc1ccc2c3n(c(=NC(=O)c4cccnc4)nc2c1OC)CCN3 | 0.195 °C
6 | CC#CCn1c(N2CCC[C@@H](N)C2)nc2c1c(=O)n(Cc1nc(C)c3ccccc3n1)c(=O)n2C [Linagliptin] | -0.0664 °C
7 | CCN(CC)CCOCCOC(=O)C1(c2ccccc2)CCCC1 [Pentoxyverine Citrate] | -0.118 °C
8 | CC(=O)Nc1nc(-c2cccc(NS(=O)(=O)c3cccc4c(N(C)C)cccc34)c2)cs1 | -0.111 °C
9 | Cc1cc(NC(=O)NCCN2CCC(O)(Cc3ccccc3)CC2)c2ccccc2n1 [Palosuran] | 0.031 °C
10 | CN1[C@@H]2C[C@@H](OC(=O)[C@H](CO)c3ccccc3)C[C@H]1[C@@H]1O[C@@H]12 [Scopolamine HBr] | 0.257 °C
11 | CCCc1ccc(OCC(=O)N(Cc2nc(-c3cccnc3)no2)C(C)C)cc1 | -0.235 °C
12 | COc1cc(OC)c(NC(=O)Nc2cc(C)on2)cc1Cl | 0.0846 °C
13 | CNC(=O)c1ccc(N2C(=S)N(c3ccc(C#N)c(C(F)(F)F)c3)C(=O)C2(C)C)cc1F [Enzalutamide (MDV3100)] | 0.259 °C
14 | NC[C@@](O)(c1ccc(Cl)cc1)c1ccc(-c2cn[nH]c2)cc1 | -0.191 °C
15 | O=c1c(O)c(-c2ccc(O)cc2)oc2cc(O)cc(O)c12 [Kaempferol] | -0.0335 °C
16 | CC(C)NC(=O)C1CCC(n2c(NC(=O)c3ccc(F)cc3)nc3ccc(CN4CCC(C(C)(C)O)CC4)cc32)CC1 (stereo unspecified) [Belizatinib] | -0.232 °C
17 | N#C/C(=C(/N)Sc1ccc(N)cc1)c1ccccc1C(F)(F)F | 0.0677 °C
18 | COc1cc2nc(N3CCN(C(=O)C4COc5ccccc5O4)CC3)nc(N)c2cc1OC (stereo unspecified) [Doxazosin Mesylate] | 0.23 °C

Sorted by length of the SMILES (smallest number first): some entries from above.
Row | SMILES | thermal shift ΔTm of Mpro
14 | NC[C@@](O)(c1ccc(Cl)cc1)c1ccc(-c2cn[nH]c2)cc1 | -0.191 °C
9 | Cc1cc(NC(=O)NCCN2CCC(O)(Cc3ccccc3)CC2)c2ccccc2n1 [Palosuran] | 0.031 °C
4 | COC(=O)[C@H](CC(C)C)NC(=O)c1ccc(NC[C@@H](N)CS)cc1-c1cccc2ccccc12 | 0.223 °C

The list goes on:

Row | SMILES | thermal shift ΔTm of Mpro
19 | CC(C)(C)NC(=O)[C@H]1CC[C@H]2[C@@H]3CC[C@H]4NC(=O)C=C[C@]4(C)[C@H]3CC[C@]12C [Finasteride] | 0.181 °C
20 | Cc1ccc(C(=O)Cn2c3c(sc2=N)CCCC3)cc1 [Pifithrin-α (PFTα)] | 0.019 °C
21 | C=CC[N+]1([C@H]2C[C@H]3[C@@H]4CC[C@H]5C[C@H](O)[C@@H](N6CCOCC6)C[C@]5(C)[C@H]4CC[C@]3(C)[C@H]2OC(C)=O)CCCC1 [Rocuronium Bromide] | 0.0872 °C
22 | Cc1cccc(C)c1NC(=O)CN1CCCC1=O [Nefiracetam] | 0.232 °C
23 | Cc1ccc(C(=O)N(CCCN)[C@@H](c2oc3cc(Cl)ccc3c(=O)c2Cc2ccccc2)C(C)C)cc1 | -0.302 °C
24 | Nc1nc(N)c2nc(-c3ccccc3)c(N)nc2n1 [Triamterene] | 0.124 °C
25 | C=C1CC[C@H](O)C/C1=C/C=C1\CCC[C@]2(C)[C@@H]([C@H](C)/C=C/[C@H](C)C(C)C)CC[C@@H]12 [Vitamin D2] | 0.28 °C
26 | CCCCOc1ccc(C(=O)CCN2CCCCC2)cc1 [Dyclonine HCl] | 0.00206 °C
27 | C=C1C(=O)O[C@H]2[C@H]1CC/C(C)=C/CC[C@@]1(C)O[C@@H]21 [(-)-Parthenolide] | -0.0435 °C
28 | COc1ccc(CCC(=O)Nc2nc3ccc(Cl)cc3s2)cc1OC | -0.0412 °C
29 | COc1ccc(-c2cc3nccn3c(Nc3ncccc3C(N)=O)n2)cc1OC | -0.0532 °C
30 | O=[N+]([O-])c1cn2c(n1)OC[C@@H](OCc1ccc(OC(F)(F)F)cc1)C2 | 0.0521 °C
31 | Cn1nnc2c(C(N)=O)ncn2c1=O [Temozolomide] | 0.109 °C
32 | COc1ccc(CCC(=O)c2c(O)cc(O[C@@H]3O[C@H](CO)[C@@H](O)[C@H](O)[C@H]3O[C@@H]3O[C@@H](C)[C@H](O)[C@@H](O)[C@H]3O)cc2O)cc1O [Neohesperidin dihydrochalcone (Nhdc)] | -0.252 °C
33 | C[C@]12CC[C@H](O)CC1=CC[C@@H]1[C@@H]2CC[C@]2(C)C(c3cccnc3)=CC[C@@H]12 [Abiraterone] | -0.0511 °C
34 | C[C@]12CCC(=O)C=C1C=C[C@@H]1[C@@H]2CC[C@@]2(C)[C@H]1CC[C@@]2(O)CCC(=O)O [Potassium canrenoate] | 0.0285 °C
35 | Cn1c(N2CCCCS2(=O)=O)nc(C(=O)NCc2ccc(F)cc2)c(O)c1=O | 0.552 °C
36 | CN1CCN(c2ccc(C(=O)Nc3cc(-c4cccc(NS(=O)(=O)c5ccccc5)c4)[nH]n3)cc2)CC1 | 0.302 °C
